Drawing on PubChem BioAssay AID2685 (National Center for Advancing Translational Sciences (NCATS), 2010), this text covers cell number change and AC50 for 62 compounds.

This is one part of the list. Shown are side measurements of this screen, not its main read-out; they come without a call. Most of these compounds were active or inconclusive in the main read-out, so they are no random draw. The note in brackets gives the kind of curve behind each potency; many fits are weak.

A short description of this assay: qHTS Assay for Lipid Storage Modulators in Drosophila S3 Cells.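 For cell number change: cells counted by Cell Tracker Red CMTPX staining in the red channel.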 To be noted: BODIPY lipid droplet fluorescence, 18-24 h; for cell number change: measured here: cell count max response, cells fed with added oleic acid. The essentials: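 Drosophila S3 cells loaded with oleic acid (400 uM, as added) and compounds at several concentrations; lipid droplets imaged by 488-nm laser-scanning cytometry, 500–530 nm intensity and object ratio to cell channel. Percent activity normalized to 20 uM Triacsin C.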

Setting [1] is: measured here: lipid fluorescence (Fed channel) AC50, cells fed with added oleic acid.
The mark [2] stands for this setting: measured here: cell number channel AC50, cells fed with added oleic acid.

For the compound `O=C(CN(C(=O)C1CSC(=O)C1)c1cccc(F)c1)NCc1ccc2c(c1)OCO2` (stereo unspecified), the cell number change was found to be 12.1%. Also, under setting [1], the half-maximal activity concentration (AC50) was 0.13 µM [rising, full curve, poor fit]. Turning to `CCC(=O)c1ccc(OCC(=O)OCC(=O)Nc2ccc(C)c(S(=O)(=O)N3CCCCC3)c2)cc1`, the cell number change amounted to 9.97%. Also, the half-maximal activity concentration (AC50) under setting [1] is 3.66 µM [falling, single point].

`OCCNc1nc2ccccc2n1-c1ncnc2sc3c(c12)CCC3`: the cell number change was determined as 5.76%. Moreover, under setting [2], the AC50 is 0.184 µM [rising, full curve, poor fit]. For the same compound, under setting [1], the AC50 was 29.1 µM [rising, single point].

With `COc1cc(/C=C(\C#N)C(=O)NCC2CCCO2)ccc1O` (stereo unspecified), the cell number change is -44.6%. Moreover, the concentration at half-maximal activity (AC50) under setting [2] is 16.4 µM [falling, single point]. Consider `CCOC(=O)c1cc(CC)sc1N1C(=O)CC(Sc2ccccc2C(=O)O)C1=O` (stereo unspecified), for which the cell number change was determined as 21.8%. Besides, under setting [1], the AC50 is 29.1 µM [rising, partial curve, poor fit]. With `COc1ccc(NC(=O)CSc2nnc(NC(=O)CN3CCOCC3)s2)cc1`, the cell number change is -6.12%.

Take `Cn1nccc1C(=O)NC1CCCc2c1cnn2-c1ccc(F)cc1F` (stereo unspecified): the cell number change was -64.1%. Also, the half-maximal activity concentration (AC50) under setting [2] is 1.64 µM [falling, full curve]. With `Cc1ccc(OCC(=O)NNC(=O)C(=O)NC(C)(C)C)cc1`, the cell number change was determined as 15.7%. Further, the half-maximal activity concentration (AC50) under setting [1] was 6.51 µM [rising, single point].

Turning to `CCCc1[nH]nc2c1C(c1ccccc1OCC)C(C#N)=C(N)O2` (stereo unspecified), the cell number change came to 8.94%. Besides, the AC50 under setting [2] was 0.00366 µM [rising, full curve, poor fit]. For `O=c1ccc(-c2ccc(S(=O)(=O)Nc3ccccc3Cl)o2)n[nH]1`, the cell number change turned out to be 3.44%. Further, under setting [2], the concentration at half-maximal activity (AC50) is 6.51 µM [rising, single point]. Further, the AC50 under setting [1] is 29.1 µM [rising, single point]. Turning to `O=C(/C(=C/c1ccc(Cl)cc1)c1nc2ccccc2[nH]1)c1ccccc1`, the cell number change was -24.6%. The AC50 under setting [1] was 18.4 µM [falling, single point]. `COc1ccc(CCNC(=O)CCNS(=O)(=O)c2cccc3nsnc23)cc1OC`: the cell number change amounted to 83.5%. Further, the half-maximal activity concentration (AC50) under setting [2] was 5.8 µM [rising, partial curve]. Further, the AC50 under setting [1] is 8.2 µM [rising, partial curve].

With `CCN1CCN(C(=O)c2cc3cc(F)ccc3[nH]2)CC1`, the cell number change turned out to be 27.5%. Also, under setting [1], the half-maximal activity concentration (AC50) was 29.1 µM [rising, single point]. Consider `O=C(CCC(=O)c1ccccc1)NCc1cccc(C(F)(F)F)c1`, for which the cell number change is 5.76%. Take `CCCn1c(=O)c(C(=O)NCc2ccccc2OC)c(O)c2ccccc21`: the cell number change was 8.04%. Moreover, the concentration at half-maximal activity (AC50) under setting [1] was 7.31 µM [rising, partial curve, poor fit]. In the case of `Cn1cc(C(=O)N/N=C/c2cccc(O)c2)ccc1=O`, the cell number change was determined as 87.5%. For the compound `N#CC(C#N)=CN=c1ccn(Cc2ccc(Cl)cc2Cl)cc1`, the cell number change was -19%. Moreover, the AC50 under setting [1] was 0.259 µM [falling, full curve, poor fit]. In the case of `Cc1cc2cc(CN(Cc3cccs3)C(=S)NCc3ccco3)c(=O)[nH]c2cc1C`, the cell number change was -0.599%. Under setting [1], the concentration at half-maximal activity (AC50) is 0.058 µM [rising, full curve, poor fit].

Regarding `O=C(NC1CCCc2ccccc21)c1cc(Cl)ccn1` (stereo unspecified), the cell number change is 15.4%. `CC(C)CN1CCN(C2CCN(C(C)C)CC2)C(CCO)C1` (stereo unspecified): the cell number change was -14.4%. Besides, the AC50 under setting [1] is 7.31 µM [falling, partial curve, poor fit]. Take `CC(C)NC(=O)NC(=O)COC(=O)c1cc[n+]([O-])cc1`: the cell number change was 46.6%. Also, under setting [2], the AC50 is 25.9 µM [rising, single point]. Take `CCOC(=O)CCc1c(C)c2ccc(OC(C)C(=O)OCC)c(C)c2oc1=O` (stereo unspecified): the cell number change is -33.9%. For the same compound, the half-maximal activity concentration (AC50) under setting [2] is 29.1 µM [falling, single point]. As for `COc1ccc(OC)c(C(=O)COC(=O)c2ccc(C)o2)c1`, the cell number change was -35%. Further, the half-maximal activity concentration (AC50) under setting [2] is 29.1 µM [falling, single point]. Turning to `CC1CCN(C(=O)c2[nH]cnc2C(=O)NCc2ccccc2)CC1`, the cell number change worked out at 15.1%. The concentration at half-maximal activity (AC50) under setting [2] was 2.06 µM [falling, single point]. For the same compound, under setting [1], the concentration at half-maximal activity (AC50) was 2.06 µM [falling, partial curve]. Turning to `C/C(=N\NC(=O)c1ccc(O)cc1)c1cc2ccccc2o1`, the cell number change is -10.2%. The half-maximal activity concentration (AC50) under setting [1] is 0.0461 µM [rising, full curve, poor fit]. With `CCOC(=O)c1cc2[nH]c3ccccc3c2[n+](-c2ccc([N+](=O)[O-])cc2)c1N`, the cell number change is -12.2%. The AC50 under setting [2] is 0.326 µM [rising, partial curve, poor fit]. As to `Cn1cccc1C(NC(=O)c1ccccc1)C(Cl)(Cl)Cl` (stereo unspecified), the cell number change was -14.4%. Take `CC(=O)Nc1ccc(-n2cc(-c3ccccc3)[nH]c2=S)cc1`: the cell number change turned out to be 80.3%. Also, under setting [2], the concentration at half-maximal activity (AC50) was 8.2 µM [rising, partial curve]. Take `CC1(C)CC2(CCO1)OC(=O)CC2C(=O)NCc1ccccc1` (stereo unspecified): the cell number change was -38.4%. Under setting [2], the half-maximal activity concentration (AC50) was 0.58 µM [falling, full curve]. As to `COc1cccc(NC(=O)CN(C)C(C)C(=O)Nc2ccc(S(=O)(=O)N3CCCC3)cc2)c1` (stereo unspecified), the cell number change stood at 26.6%. As for `COc1ccc(C(=O)NC(=S)NNC(=O)c2ccc(NC(=O)C(C)C)cc2)cc1`, the AC50 under setting [1] was 4.61 µM [falling, partial curve]. Regarding `CCOC(=O)C1CCCN(C(=O)c2cccc(S(=O)(=O)N3CCOCC3)c2)C1` (stereo unspecified), the cell number change stood at 21.8%. Under setting [1], the AC50 is 29.1 µM [rising, single point].

As for `Clc1ccc(CSc2nnnn2-c2ccc3c(c2)OCO3)c(Cl)c1`, the AC50 by setting is: under setting [2], 0.366 µM [rising, single point]; under setting [1], 0.231 µM [rising, full curve, poor fit].

Turning to `Cn1c(-c2ccsc2)c(-c2cccs2)c2cc(-c3ccc4cc[nH]c4c3)ccc21`, the cell number change is 18.2%. For the same compound, the half-maximal activity concentration (AC50) under setting [1] was 0.103 µM [rising, full curve, poor fit]. As for `O=c1c2ccccc2sn1-c1cc(S(=O)(=O)N2CCOCC2)ccc1N1CCOCC1`, the cell number change is -86.5%. The half-maximal activity concentration (AC50) under setting [2] is 3.66 µM [falling, full curve]. For the same compound, the AC50 under setting [1] is 4.11 µM [falling, full curve]. Regarding `O=C(N/N=C1\CC(c2ccccc2)Oc2ccccc21)c1ccccn1` (stereo unspecified), the cell number change was 10.3%. In addition, the concentration at half-maximal activity (AC50) under setting [2] is 6.51 µM [rising, single point].

As to `C=CCN1C(=O)c2ccc(C(=O)N3CCN(S(=O)(=O)c4cccc([N+](=O)[O-])c4)CC3)cc2C1=O`, the cell number change is -22.9%. In addition, the AC50 under setting [1] was 0.146 µM [rising, full curve, poor fit].

Turning to `O=C(Cn1c(NCCO)nc2ccccc21)c1ccc([N+](=O)[O-])cc1`, the cell number change amounted to 16.2%. As for `CCOC(=O)C1CCCN(C(=O)c2ccccc2NC(=O)C2=C(C)OCCS2)C1` (stereo unspecified), the cell number change was 15.6%. Besides, the AC50 under setting [1] was 5.8 µM [rising, partial curve]. As to `CCOC(=O)/C=C/c1cnn(-c2ccccc2)c1`, the cell number change amounted to 31.2%. Under setting [2], the AC50 is 2.06 µM [rising, full curve, poor fit]. Turning to `CCOc1nnc(C)c2c(C)n(-c3ccc(Cl)cc3)nc12`, the cell number change was -15.2%. On the same count and under the same terms, then `O=C(c1nn(Cc2ccccc2)c(=O)c2ccccc12)N1CCN(c2ccccn2)CC1`, with -17.2%.

For `O=C1S/C(=C\c2ccccc2)C(=O)N1CC(O)Cn1c2ccccc2c2ccccc21` (stereo unspecified), under setting [1], the concentration at half-maximal activity (AC50) was 1.46 µM [falling, partial curve, poor fit]. For `CC(C)(C)c1nnc(NC(=O)C2CCN(c3ncccn3)CC2)s1`, the cell number change was determined as 9.91%. Further, under setting [1], the half-maximal activity concentration (AC50) was 18.4 µM [rising, single point].

Regarding `COc1ccc(NC(=O)COC(=O)c2ccc(N3CCCC3=O)cc2)cc1OC`, the cell number change was -14.6%. Besides, under setting [2], the half-maximal activity concentration (AC50) is 2.59 µM [rising, partial curve, poor fit]. Besides, the AC50 under setting [1] was 29.1 µM [falling, single point]. In the case of `CC1CCN(C(=O)c2ccc([N+](=O)[O-])o2)CC1`, the cell number change was -22.2%. For the same compound, the half-maximal activity concentration (AC50) under setting [1] is 29.1 µM [rising, single point]. With `CCC(=O)c1ccccc1OCCCCn1cncn1`, the cell number change came out at 15.5%. Besides, the AC50 under setting [1] is 29.1 µM [rising, single point].

In the case of `CC(C)Nc1nc(Cl)nc(NNC(=O)C(C)Oc2ccccc2)n1` (stereo unspecified), the cell number change is -17.5%. Consider `CCc1ccc(C(=O)C(C)OC(=O)C2COc3ccccc3O2)cc1` (stereo unspecified), for which the cell number change was 17.7%. On the same count and under the same terms, as for `C=CCC(=O)N1CCC(n2nccc2NC(=O)CCOc2ccccc2)CC1`, the figure is -14.7%. With `COC(=O)C1=C(C(=O)OC)[C@@H]2N(C)c3ccc(OC)cc3[C@@]23C[C@@H](C(=O)OC)N(S(=O)(=O)c2ccc([N+](=O)[O-])cc2)C3=N1`, the cell number change came to 9.49%. Also, the AC50 under setting [1] is 0.00411 µM [rising, full curve, poor fit]. For the compound `Cc1ccc(NC(=O)Cc2cccs2)cc1Cl`, the cell number change was -11.6%. Moreover, the concentration at half-maximal activity (AC50) under setting [1] is 1.64 µM [falling, partial curve, poor fit]. As for `COc1ccc(NC(=O)COC(=O)Cn2nnc3ccccc32)cc1`, the cell number change was -18.9%. Moreover, the AC50 under setting [2] was 0.092 µM [rising, full curve, poor fit]. The half-maximal activity concentration (AC50) under setting [1] was 3.66 µM [falling, single point].

Turning to `CCn1c2ccccc2c2cc(NC(=O)COc3ccccc3OC)ccc21`, the cell number change is 8.11%. Besides, under setting [1], the AC50 is 5.17 µM [rising, single point]. For the compound `Cc1cc(C)[n+](C)n1CC(O)Cn1c2ccccc2c2ccccc21` (stereo unspecified), the cell number change was -6.01%. Turning to `O=S(=O)(Nc1cccc(-n2cnnn2)c1)c1ccc(Cl)nc1`, the cell number change turned out to be 20.1%.

Take `Cc1cccc(-n2nc(C(=O)c3ccco3)cc(-c3nc4ccccc4[nH]3)c2=N)c1`: the cell number change was -51.4%. For the same compound, the AC50 under setting [2] is 4.61 µM [falling, full curve]. Moreover, the AC50 under setting [1] was 5.8 µM [falling, full curve]. Turning to `CCN(CCO)C(=O)c1ccc2nc(Cc3cccc(Cl)c3)oc2c1`, the cell number change is -0.549%. Moreover, under setting [1], the AC50 was 20.6 µM [rising, single point]. With `Cc1ccc(Cl)cc1NC(=O)COC(=O)CN1C(=O)C2CCCCC2C1=O` (stereo unspecified), the cell number change came out at 17.9%. Besides, the half-maximal activity concentration (AC50) under setting [1] is 25.9 µM [rising, partial curve]. As to `COCCNc1ccc(N2C(=O)C3CCCCC3C2=O)cc1[N+](=O)[O-]` (stereo unspecified), the cell number change was -43.4%. In addition, the AC50 under setting [2] is 23.1 µM [falling, single point]. Regarding `O=C(NCCc1ccccc1)C1CCC(=O)N(Cc2ccc(Cl)cc2)C1` (stereo unspecified), the cell number change was 46.7%. The concentration at half-maximal activity (AC50) under setting [2] is 20.6 µM [rising, partial curve, poor fit]. With `CN(Cc1ccc(Cl)cc1Cl)C(=O)CN1C(=O)NC2(CCCC2)C1=O`, the cell number change is -14%. For the same compound, the AC50 under setting [1] was 0.0651 µM [rising, full curve, poor fit].
